For two substances, binding results are on record in PMC10415178.

Protein sequences, listed by entry. Tags and fused reporters are not part of them.
UniProt Q04887: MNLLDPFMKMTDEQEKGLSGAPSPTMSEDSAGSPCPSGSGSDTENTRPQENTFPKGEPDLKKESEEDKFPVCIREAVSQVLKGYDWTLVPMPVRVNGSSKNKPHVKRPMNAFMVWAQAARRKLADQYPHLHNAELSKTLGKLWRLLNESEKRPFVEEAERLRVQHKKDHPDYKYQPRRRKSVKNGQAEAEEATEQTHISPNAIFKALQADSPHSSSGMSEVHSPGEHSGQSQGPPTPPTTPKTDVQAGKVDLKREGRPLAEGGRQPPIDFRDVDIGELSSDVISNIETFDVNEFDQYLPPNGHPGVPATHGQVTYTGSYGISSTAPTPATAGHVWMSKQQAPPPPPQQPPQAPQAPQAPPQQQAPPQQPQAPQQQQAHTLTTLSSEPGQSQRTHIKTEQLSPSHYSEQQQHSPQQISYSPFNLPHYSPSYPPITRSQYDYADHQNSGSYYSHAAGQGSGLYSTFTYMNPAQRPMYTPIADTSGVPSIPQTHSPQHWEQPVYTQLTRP
UniProt A2BH40: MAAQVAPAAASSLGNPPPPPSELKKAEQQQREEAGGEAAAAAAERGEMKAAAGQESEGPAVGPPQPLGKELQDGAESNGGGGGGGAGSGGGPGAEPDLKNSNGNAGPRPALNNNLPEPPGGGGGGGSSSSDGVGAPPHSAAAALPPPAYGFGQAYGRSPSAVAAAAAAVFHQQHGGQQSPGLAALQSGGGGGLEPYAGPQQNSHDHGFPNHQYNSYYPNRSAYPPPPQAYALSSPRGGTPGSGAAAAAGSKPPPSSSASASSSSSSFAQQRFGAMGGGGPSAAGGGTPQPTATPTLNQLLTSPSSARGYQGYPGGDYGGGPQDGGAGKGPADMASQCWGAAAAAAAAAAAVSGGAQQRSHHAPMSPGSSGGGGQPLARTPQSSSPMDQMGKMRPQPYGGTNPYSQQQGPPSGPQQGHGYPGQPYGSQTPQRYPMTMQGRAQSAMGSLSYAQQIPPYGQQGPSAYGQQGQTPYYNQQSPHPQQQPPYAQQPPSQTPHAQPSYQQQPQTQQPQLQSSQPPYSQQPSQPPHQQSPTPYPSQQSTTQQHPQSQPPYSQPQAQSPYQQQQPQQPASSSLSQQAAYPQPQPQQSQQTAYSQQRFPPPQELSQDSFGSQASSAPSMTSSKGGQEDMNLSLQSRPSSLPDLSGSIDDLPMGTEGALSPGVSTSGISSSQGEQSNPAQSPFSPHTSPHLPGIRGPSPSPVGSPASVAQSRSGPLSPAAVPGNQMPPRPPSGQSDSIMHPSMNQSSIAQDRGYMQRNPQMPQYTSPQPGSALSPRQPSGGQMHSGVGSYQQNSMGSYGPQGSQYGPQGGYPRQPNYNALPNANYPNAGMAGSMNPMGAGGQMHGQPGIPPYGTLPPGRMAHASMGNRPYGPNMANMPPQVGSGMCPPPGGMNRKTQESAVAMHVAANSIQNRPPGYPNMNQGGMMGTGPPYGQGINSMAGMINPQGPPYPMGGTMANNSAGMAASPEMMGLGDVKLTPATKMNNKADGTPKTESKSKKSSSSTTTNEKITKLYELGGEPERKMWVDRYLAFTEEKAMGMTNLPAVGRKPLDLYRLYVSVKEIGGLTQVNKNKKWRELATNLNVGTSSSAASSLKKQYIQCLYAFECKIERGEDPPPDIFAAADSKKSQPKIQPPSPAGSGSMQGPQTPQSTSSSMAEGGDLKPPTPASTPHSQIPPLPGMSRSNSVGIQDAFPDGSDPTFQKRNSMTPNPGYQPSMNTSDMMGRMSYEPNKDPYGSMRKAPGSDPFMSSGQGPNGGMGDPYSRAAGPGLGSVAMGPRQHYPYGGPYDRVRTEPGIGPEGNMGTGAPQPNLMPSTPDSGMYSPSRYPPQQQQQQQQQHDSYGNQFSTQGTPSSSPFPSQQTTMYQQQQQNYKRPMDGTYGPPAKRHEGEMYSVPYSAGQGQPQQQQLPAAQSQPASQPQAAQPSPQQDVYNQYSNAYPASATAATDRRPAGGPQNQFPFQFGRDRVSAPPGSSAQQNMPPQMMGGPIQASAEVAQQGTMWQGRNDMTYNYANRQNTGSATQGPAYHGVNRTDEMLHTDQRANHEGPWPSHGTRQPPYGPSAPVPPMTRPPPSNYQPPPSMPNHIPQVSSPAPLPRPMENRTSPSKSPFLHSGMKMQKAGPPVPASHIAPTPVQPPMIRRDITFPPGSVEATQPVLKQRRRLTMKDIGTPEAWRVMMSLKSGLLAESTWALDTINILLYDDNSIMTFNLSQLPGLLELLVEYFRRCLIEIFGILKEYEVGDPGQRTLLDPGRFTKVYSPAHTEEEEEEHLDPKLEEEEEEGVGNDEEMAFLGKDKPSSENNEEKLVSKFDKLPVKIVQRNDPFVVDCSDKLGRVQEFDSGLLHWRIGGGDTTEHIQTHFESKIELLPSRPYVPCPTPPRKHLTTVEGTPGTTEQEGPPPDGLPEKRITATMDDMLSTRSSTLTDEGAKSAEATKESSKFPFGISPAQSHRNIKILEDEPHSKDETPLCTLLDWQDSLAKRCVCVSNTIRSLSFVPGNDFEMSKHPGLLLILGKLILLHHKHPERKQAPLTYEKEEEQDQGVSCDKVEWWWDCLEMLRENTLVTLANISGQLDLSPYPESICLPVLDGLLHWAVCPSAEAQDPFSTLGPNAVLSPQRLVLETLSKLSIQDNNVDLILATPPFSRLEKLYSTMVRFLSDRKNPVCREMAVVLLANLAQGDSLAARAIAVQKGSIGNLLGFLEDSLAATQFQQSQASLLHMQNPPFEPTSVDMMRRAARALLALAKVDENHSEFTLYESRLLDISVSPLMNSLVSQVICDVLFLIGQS
UniProt P05627: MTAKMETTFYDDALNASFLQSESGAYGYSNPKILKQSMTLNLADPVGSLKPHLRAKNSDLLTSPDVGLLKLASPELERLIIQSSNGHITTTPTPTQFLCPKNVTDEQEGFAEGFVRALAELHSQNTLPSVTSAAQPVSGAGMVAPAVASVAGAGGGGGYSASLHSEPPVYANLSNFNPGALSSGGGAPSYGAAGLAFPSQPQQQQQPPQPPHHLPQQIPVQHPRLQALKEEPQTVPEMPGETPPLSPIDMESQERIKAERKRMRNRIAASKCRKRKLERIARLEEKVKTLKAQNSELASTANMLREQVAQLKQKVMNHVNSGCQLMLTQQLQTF

Results are given in words; binding and its absence hold for the method and conditions named. Binding seen in cells or lysates may run through a third protein. Some entries that bind do so weakly or less than the wild type.

The target of this test is MYC-tagged wild-type SOX9 (lentiviral, plKO TRE) (UniProt Q04887). Kind of test: co-IP; cultured EpdSC lysates with or without DOX induction of MYC-tagged SOX9 or its variants; anti-myc tag antibody on protein-A/G magnetic beads; immunoblot for MLL4, cJUN or ARID1a.

Regarding ARID1a (from UniProt A2BH40 1-2283), the binding result is on record as “binds”.
Then c-JUN (from UniProt P05627 1-334), with “binds”.
